Experimental data reported in US9408921B2 (Brandeis University, priority 2009, dated 2016).
[ ]: non-standard residue; d: D form. The star is where a group is joined. Paclitaxel(2'-O-succinyl) = CC(=O)O[C@H]1C(=O)[C@@]2(C)[C@H]([C@H](OC(=O)c3ccccc3)[C@]3(O)C[C@H](OC(=O)[C@H](OC(=O)CCC(=O)*)[C@@H](NC(=O)c4ccccc4)c4ccccc4)C(C)=C1C3(C)C)[C@]1(OC(C)=O)CO[C@@H]1C[C@@H]2O; Acetyl(2-naphthyl) = O=C(Cc1ccc2ccccc2c1)*; pY = N[C@@H](Cc1ccc(OP(=O)(O)O)cc1)C(=O)O

Test: peptide synthesis
Conditions: conjugation step, overall

{Acetyl(2-naphthyl)}-FFK(Paclitaxel(2'-O-succinyl))[pY]-OH (SMILES CC(=O)O[C@H]1C(=O)[C@@]2(C)[C@H]([C@H](OC(=O)c3ccccc3)[C@]3(O)C[C@H](OC(=O)[C@H](OC(=O)CCC(=O)NCCCC[C@H](NC(=O)[C@H](Cc4ccccc4)NC(=O)[C@H](Cc4ccccc4)NC(=O)Cc4ccc5ccccc5c4)C(=O)N[C@@H](Cc4ccc(OP(=O)(O)O)cc4)C(=O)O)[C@@H](NC(=O)c4ccccc4)c4ccccc4)C(C)=C1C3(C)C)[C@]1(OC(C)=O)CO[C@@H]1C[C@@H]2O)
conjugation yield: 37.1%
